In US20110014656A1:
Results are given in words; binding and its absence hold for the method and conditions named. Some entries that bind do so weakly or less than the wild type.

Legend:
Conditions in all cases: remark: other sources report otherwise
[1] = target: T1, human IL-17 receptor (IL-17RA) on transfected cells (human), Q96F46; test: FACS competition, unlabeled vs biotinylated cytokine on BHK cells
[2] = target: T1, human IL-17 receptor (IL-17RA) on …; test: FACS competition, unlabeled vs biotinylated cytokine on BHK cells; FACS competition, unlabeled vs biotinylated cytokine; binding specific but of low avidity
[3] = target: T1, human IL-17 receptor (IL-17RA) on …; test: FACS, biotinylated cytokine + SA-PE on transfected BHK cells; FACS, biotinylated IL-17F + SA-PE on IL-17R-transfected BHK cells, on ice
[4] = target: T1, human IL-17 receptor (IL-17RA) on …; test: FACS, biotinylated cytokine on stably transfected BHK cells; FACS, biotinylated hIL-17F on stably hIL-17RA-transfected BHK cells
[5] = target: T1, human IL-17 receptor (IL-17RA) on …; test: saturation binding, 125I-cytokine on BHK cells
[6] = target: T1, human IL-17 receptor (IL-17RA) on …; test: FACS, mean fluorescence over a range of cytokine concentrations on BHK transfectants; FACS, mean fluorescence over a range of cytokine concentrations
[7] = target: T1, human IL-17 receptor (IL-17RA) on …; test: binding curve fits to the experiments of Table 7, receptor on transfected cells

Measured: binding

B1: human IL-17F, Q96PD4 31-163 (ligand)
chain: RKIPKVGHTFFQKPESCPPVPGGSMKLDIGIINENQRVSMSRNIESRSTSPWNYTVTWDPNRYPSEVVQAQCRNLGCINAQGKEDISMNSVPIQQETLVVRRKHQGCSVSFQLEKVLVTVGCTCVTPVIHHVQ
binds: all assays above
